Experimental data from paper PMC4546648.
Substitutions are numbered along the chain they refer to. No constants are given. Whether binding was seen depends on the method and setting. In cells and extracts the contact can be indirect. Binding can be weak; no strength is given. Tags and fused reporters may be left off the sequences shown.

Key:
S-tagged PLCγ1 R694L = target: T1, S-tagged PLCγ1 R694L (UniProt P19174); experiment: co-IP; HEK293T co-transfected; lysed in IP buffer (150 mM NaCl, 25 mM tris HCl pH 7.6, 1 mM EDTA, 1% glycerol, 0.2% NP-40); S-tagged construct captured on S protein agarose beads overnight at 4°C; western blot
T1 sequence: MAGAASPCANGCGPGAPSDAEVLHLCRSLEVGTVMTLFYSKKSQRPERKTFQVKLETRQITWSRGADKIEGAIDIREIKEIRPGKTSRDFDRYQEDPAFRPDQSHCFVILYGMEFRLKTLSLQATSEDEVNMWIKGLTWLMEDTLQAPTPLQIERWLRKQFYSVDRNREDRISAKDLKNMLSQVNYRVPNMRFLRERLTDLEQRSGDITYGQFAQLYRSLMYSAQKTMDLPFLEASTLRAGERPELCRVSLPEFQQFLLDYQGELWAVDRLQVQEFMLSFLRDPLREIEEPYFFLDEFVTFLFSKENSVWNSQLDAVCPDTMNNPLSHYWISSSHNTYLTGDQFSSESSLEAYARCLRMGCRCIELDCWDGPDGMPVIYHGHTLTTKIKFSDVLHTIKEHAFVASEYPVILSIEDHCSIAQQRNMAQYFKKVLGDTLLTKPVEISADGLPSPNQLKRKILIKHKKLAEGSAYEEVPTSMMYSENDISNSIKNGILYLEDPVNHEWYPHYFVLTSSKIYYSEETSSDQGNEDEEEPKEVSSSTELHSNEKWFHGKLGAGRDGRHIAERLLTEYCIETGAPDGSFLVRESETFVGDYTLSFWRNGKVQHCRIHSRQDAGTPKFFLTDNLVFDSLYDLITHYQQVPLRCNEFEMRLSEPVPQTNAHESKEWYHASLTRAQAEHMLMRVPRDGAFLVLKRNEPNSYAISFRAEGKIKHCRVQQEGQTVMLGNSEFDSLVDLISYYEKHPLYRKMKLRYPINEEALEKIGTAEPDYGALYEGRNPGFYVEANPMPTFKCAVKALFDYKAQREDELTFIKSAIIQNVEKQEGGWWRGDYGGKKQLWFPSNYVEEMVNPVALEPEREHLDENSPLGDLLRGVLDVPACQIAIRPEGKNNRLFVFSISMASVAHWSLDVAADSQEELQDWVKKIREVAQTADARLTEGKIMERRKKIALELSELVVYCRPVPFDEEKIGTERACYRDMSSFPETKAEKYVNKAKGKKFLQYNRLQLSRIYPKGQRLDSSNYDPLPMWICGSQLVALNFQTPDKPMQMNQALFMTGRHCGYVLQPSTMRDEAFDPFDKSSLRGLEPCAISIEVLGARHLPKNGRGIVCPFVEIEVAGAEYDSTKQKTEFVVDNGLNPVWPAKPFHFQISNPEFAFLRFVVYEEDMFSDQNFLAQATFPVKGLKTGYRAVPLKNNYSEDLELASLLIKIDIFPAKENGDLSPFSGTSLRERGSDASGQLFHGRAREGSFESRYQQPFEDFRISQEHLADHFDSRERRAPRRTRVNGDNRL

S-tagged PLCγ1 R586L = target: T2, S-tagged PLCγ1 R586L (UniProt P19174); experiment: as above
T2 sequence: T1 sequence with R586L, L694R

With K15M wt the binding (S-tagged PLCγ1 R694L) was “binds” and the binding (S-tagged PLCγ1 R586L) was “binds”.
